Source: patent publication USRE41209E1, “Platinum complexes” (Genzyme Corporation, priority 1996, dated 2010)

System: ADJ/PC6
Assay: ADJ/PC6 tumour mass reduction in Balb C mice
Assay type: in vivo

## Cc1cccc[n+]1[Pt-2]([NH3+])([Cl])[Cl] [Example 1, (SP-4-3)-amminedichloro(2-methylpyridine) platinum(II)]
ADJ/PC6, Daily × 5 (i.p.)
  TI, therapeutic index; LD50/ED90: 26.3
ADJ/PC6, Single dose (i.p.)
  TI, therapeutic index; LD50/ED90: 14.3
ADJ/PC6, Single dose (p.o.)
  TI, therapeutic index; LD50/ED90: 90.3
